Results from paper PMC11039992.
Substitutions are numbered along the chain they refer to. Results are given in words; binding and its absence hold for the method and conditions named. In cells and extracts the contact can be indirect. A yes stands for co-enrichment or nearness to the bait. Other partners may have been found. For some assays here: A no says only that the protein was not detected with the bait.

The chains behind the UniProt entries cited, without tags or fusion partners.
UniProt Q8TBF4: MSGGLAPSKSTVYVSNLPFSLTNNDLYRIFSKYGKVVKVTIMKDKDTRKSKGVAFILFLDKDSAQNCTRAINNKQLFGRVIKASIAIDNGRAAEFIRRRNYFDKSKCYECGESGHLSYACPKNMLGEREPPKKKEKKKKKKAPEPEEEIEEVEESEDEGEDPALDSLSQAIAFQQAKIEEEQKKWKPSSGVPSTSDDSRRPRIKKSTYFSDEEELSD
UniProt P38432: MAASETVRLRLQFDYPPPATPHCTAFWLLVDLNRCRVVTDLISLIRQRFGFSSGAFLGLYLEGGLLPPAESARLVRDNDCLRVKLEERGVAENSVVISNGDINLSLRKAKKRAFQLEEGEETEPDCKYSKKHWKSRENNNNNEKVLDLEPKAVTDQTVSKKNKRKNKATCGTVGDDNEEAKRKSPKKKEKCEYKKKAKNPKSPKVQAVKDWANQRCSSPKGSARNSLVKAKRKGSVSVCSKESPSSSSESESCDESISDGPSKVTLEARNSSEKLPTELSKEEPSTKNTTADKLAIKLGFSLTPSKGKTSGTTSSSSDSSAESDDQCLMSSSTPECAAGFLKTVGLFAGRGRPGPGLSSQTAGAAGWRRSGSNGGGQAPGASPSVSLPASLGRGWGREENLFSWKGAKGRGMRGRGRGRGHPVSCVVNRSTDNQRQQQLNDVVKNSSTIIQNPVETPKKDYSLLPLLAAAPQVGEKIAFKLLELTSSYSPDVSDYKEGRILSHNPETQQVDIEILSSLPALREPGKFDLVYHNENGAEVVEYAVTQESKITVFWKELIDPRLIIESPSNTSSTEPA

How the values were obtained:
Assay in all cases: proximity labelling; BioID: N-terminally MAC-tagged bait in Flp-In T-REx 293 cells, induced with 2 μg/ml tetracycline and 50 μM biotin for 24 h; three independent replicates; mass spectrometry
[1] = target: T1, MAC-RBM41-(1–258) (human) (UniProt Q96IZ5)
T1 sequence: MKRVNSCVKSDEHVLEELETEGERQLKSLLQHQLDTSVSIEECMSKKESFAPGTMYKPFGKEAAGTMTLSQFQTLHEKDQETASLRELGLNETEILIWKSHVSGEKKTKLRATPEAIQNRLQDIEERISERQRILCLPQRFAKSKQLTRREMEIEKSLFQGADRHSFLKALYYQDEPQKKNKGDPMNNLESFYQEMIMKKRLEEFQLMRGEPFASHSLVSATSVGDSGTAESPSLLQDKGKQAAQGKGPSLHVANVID

[2] = target: T2, MAC-RBM41-(259–413) (human) (UniProt Q96IZ5)
T2 sequence: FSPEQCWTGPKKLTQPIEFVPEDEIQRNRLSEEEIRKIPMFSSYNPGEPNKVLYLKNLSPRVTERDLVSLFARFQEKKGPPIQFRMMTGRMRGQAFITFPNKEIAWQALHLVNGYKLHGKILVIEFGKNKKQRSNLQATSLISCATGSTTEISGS

MAC-RBM41-F354A (human) = target: T3, MAC-RBM41-F354A (human) (UniProt Q96IZ5)
T3 sequence: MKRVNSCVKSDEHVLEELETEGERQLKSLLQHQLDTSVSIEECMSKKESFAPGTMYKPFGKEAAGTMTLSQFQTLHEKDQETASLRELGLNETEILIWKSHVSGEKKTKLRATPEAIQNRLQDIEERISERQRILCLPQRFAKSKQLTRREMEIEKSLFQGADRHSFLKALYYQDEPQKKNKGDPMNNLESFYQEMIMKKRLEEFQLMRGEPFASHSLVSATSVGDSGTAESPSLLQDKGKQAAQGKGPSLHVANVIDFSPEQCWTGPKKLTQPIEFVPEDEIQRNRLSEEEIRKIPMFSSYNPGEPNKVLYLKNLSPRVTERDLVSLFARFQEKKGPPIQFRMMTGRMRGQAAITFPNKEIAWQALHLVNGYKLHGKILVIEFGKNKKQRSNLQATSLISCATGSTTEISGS

MAC-RBM41-Q352A (human) = target: T4, MAC-RBM41-Q352A (human) (UniProt Q96IZ5)
T4 sequence: T3 sequence with Q352A, A354F

MAC-RBM41-WT (human) = target: T5, MAC-RBM41-WT (human) (UniProt Q96IZ5)
T5 sequence: T3 sequence with A354F

MAC-RBM41-Y312A (human) = target: T6, MAC-RBM41-Y312A (human) (UniProt Q96IZ5)
T6 sequence: T3 sequence with Y312A, A354F

[3] = target: T7, MAC-RBM41-Y312A + F354A (human) (UniProt Q96IZ5)
T7 sequence: T3 sequence with Y312A

MAC-U11/U12-65K (human) = target: T8, MAC-U11/U12-65K (human) (UniProt Q96LT9)
T8 sequence: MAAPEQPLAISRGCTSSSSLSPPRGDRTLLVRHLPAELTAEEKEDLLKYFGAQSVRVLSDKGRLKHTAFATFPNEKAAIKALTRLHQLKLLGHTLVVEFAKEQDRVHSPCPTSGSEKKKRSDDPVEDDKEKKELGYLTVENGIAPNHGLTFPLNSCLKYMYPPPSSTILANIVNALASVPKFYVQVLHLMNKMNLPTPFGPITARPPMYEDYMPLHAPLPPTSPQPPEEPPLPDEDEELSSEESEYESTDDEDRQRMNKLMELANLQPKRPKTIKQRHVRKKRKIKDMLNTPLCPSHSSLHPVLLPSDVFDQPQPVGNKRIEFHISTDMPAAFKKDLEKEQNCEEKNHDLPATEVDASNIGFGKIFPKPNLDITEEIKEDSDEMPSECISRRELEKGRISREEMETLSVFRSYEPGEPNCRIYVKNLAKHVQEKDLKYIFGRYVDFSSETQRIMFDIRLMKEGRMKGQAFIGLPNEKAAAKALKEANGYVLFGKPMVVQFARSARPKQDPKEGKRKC

binding [1] | binding [2] | binding (MAC-RBM41-F354A (human)) | binding (MAC-RBM41-Q352A (human)) | binding (MAC-RBM41-WT (human)) | binding (MAC-RBM41-Y312A (human)) | binding [3] | binding (MAC-U11/U12-65K (human)) | Substance
no binding | binds | no binding | binds | binds | no binding | no binding | binds | U11/U12-31K (ZCRB1) (from UniProt Q8TBF4 1-217)
 | binds |  |  | binds |  |  | binds | coilin (from UniProt P38432 1-576)
